The target in experiment [1] is T1, BLADE-ON-PETIOLE1 (BOP1) (Arabidopsis thaliana) (UniProt Q9M1I7).
T1 sequence: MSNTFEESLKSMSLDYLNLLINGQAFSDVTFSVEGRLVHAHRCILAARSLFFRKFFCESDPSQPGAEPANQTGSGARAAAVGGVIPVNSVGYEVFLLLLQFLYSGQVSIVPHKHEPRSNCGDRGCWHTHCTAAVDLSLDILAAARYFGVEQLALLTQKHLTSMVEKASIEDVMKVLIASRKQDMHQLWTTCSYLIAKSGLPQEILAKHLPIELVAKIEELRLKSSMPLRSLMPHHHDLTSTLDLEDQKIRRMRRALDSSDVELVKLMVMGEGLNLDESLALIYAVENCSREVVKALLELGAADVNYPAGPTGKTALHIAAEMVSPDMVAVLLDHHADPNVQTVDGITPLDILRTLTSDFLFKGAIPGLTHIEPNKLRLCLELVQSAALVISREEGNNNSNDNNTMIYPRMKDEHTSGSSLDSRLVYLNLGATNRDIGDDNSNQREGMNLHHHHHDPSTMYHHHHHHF
Nature of the experiment: two-hybrid.

Experiment [2] concerns the target T2, BLADE-ON-PETIOLE2 (BOP2) (Arabidopsis thaliana) (UniProt Q9ZVC2).
T2 sequence: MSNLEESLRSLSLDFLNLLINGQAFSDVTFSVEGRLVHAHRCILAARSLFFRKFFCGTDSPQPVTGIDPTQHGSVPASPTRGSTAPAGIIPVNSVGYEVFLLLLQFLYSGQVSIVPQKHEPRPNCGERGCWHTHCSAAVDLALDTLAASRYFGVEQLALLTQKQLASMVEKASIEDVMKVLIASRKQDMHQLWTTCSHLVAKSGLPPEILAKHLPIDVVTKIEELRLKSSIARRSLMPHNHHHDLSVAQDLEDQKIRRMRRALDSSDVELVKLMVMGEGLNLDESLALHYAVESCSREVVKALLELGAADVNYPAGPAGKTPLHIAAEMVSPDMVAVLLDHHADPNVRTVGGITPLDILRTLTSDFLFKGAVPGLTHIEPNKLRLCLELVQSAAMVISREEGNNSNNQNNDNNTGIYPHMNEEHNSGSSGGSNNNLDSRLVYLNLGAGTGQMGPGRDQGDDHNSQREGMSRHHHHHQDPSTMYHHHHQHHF
Nature of the experiment: two-hybrid.

These are yes or no findings as the source states them, for the method shown. Some results given as binding are weak or reduced against the parent protein; the word gives no strength.

B1: LIGHT-… SHORT HYPOCOTYLS 4 (LSH4) (protein, UniProt Q9LW68 1-195)
chain: MDHIIGFMGTTNMSHNTNLMIAAAATTTTTSSSSSSSSGGSGTNQLSRYENQKRRDWNTFGQYLRNHRPPLSLSRCSGAHVLEFLRYLDQFGKTKVHTHLCPFFGHPNPPAPCACPLRQAWGSLDALIGRLRAAFEENGGSPETNPFGARAVRLYLREVRDSQAKARGISYEKKKRKRPPPPLPPAQPAISSSPN
Take B1: the binding result in experiment [1] and in experiment [2] was “binds” each time.

B2: LIGHT-… SHORT HYPOCOTYLS 1 (LSH1) (protein, UniProt Q6NNI3 1-190)
chain: MDLISHQPNKNPNSSTQLTPPSSSRYENQKRRDWNTFCQYLRNHRPPLSLPSCSGAHVLEFLRYLDQFGKTKVHHQNCAFFGLPNPPAPCPCPLRQAWGSLDALIGRLRAAYEENGGPPEANPFGSRAVRLFLREVRDFQAKARGVSYEKKRKRVNRQKPQTQPPLQLQQQQQQPQQGQSMMANYSGATV
Turning to B2, the binding entry in experiment [1] and in experiment [2] was “binds” throughout.

B3: LIGHT-… SHORT HYPOCOTYLS 3 (LSH3) (protein, UniProt O82268 1-219)
chain: MDMIPQLMEGSSAYGGVTNLNIISNNSSSVTGATGGEATQPLSSSSSPSANSSRYENQKRRDWNTFGQYLRNHRPPLSLSRCSGAHVLEFLRYLDQFGKTKVHTNICHFYGHPNPPAPCPCPLRQAWGSLDALIGRLRAAFEENGGKPETNPFGARAVRLYLREVRDMQSKARGVSYEKKKRKRPLPSSSTSSSSAVASHQQFQMLPGTSSTTQLKFEK
Turning to B3, the binding result in experiment [1] and in experiment [2] was “binds” each time.

For the origin of these results see paper doi:10.1101/2023.06.21.545689.
